In the supplement of paper PMC12578635:
± gives the standard deviation of the averaged measurements. This is one part of the list. Repeats are few or missing, and single values can be far off.

What follows are compounds tested on RAW 264.7 macrophages infected with S. aureus JE2-lux (assay: host macrophage viability (CellTiter-Fluor) relative to DMSO vehicle; higher = more viable host cells). Details: 10 µM; treatment time 4 h; gentamicin 50 µg/ml.

Structure (SMILES) | host macrophage viability [%]
Cc1nc(C)c(C(=O)N2CCN(S(=O)(=O)c3c(C)nn(Cc4ccccc4)c3C)CC2)s1 | 117
COc1ccc(-c2nc3c(C)cccn3c2NCc2ccc3c(c2)OCO3)cc1OC | 106
Cc1cccc(CNC(=O)c2nn(C)c3c2CN(S(=O)(=O)c2cn(C)cn2)CC3)c1 | 116
CCCCNC(=O)c1cnc(N2CCOCC2)nc1C | 91.2
O=C(CSc1cc[nH]c(=O)n1)NCc1ccccc1 | 102
Cc1ccn2c(=O)c(C(=O)NCCCN3CC(C)CC(C)C3)c(O)nc2c1 (configuration not stated) | 118
CCCNC(=O)CCc1c(C)[nH]c2nc(NCc3cccs3)nn2c1=O | 105
Cc1ccc(SCc2cc(=O)[nH]c(N3CCN(c4ccccc4)CC3)n2)cc1 | 109
COC(=O)c1c(NC(=O)CC2Sc3ccccc3NC2=O)sc2c1CCC(C(C)(C)C)C2 (configuration not stated) | 116
COc1cccc(Nc2nc(N3CCOCC3)c3cnn(C)c3n2)c1 | 122
CCc1ccccc1NC(=O)NC1CC(=O)N(c2cccc(OC)c2)C1 (configuration not stated) | 109
Cc1cccc(N2CCN(S(=O)(=O)c3cc(-c4ccno4)oc3C)CC2C)c1 (configuration not stated) | 112
O=C(O)C(Cc1c[nH]cn1)N1C(=O)c2cccc([N+](=O)[O-])c2C1=O (configuration not stated) | 124
CCCc1n[nH]c2c1C(C1CC=CCC1)C(C#N)=C(N)O2 (configuration not stated) | 99.1
CCOC(=O)c1[nH]c2ccccc2c1NC(=O)c1cc(Cl)ccc1OC | 114
COc1ccccc1NC(=O)C1CCN(c2cnccn2)CC1 | 112
Cc1ccc(OCC(O)Cn2c(NCCCO)nc3c2c(=O)n(C)c(=O)n3C)cc1C (configuration not stated) | 119
O=C(Nc1ccccc1Cl)C1CCN(C(=O)Nc2ccccc2)CC1 | 109
NC(=O)c1nc(-c2ccoc2)nc2c1[nH]c(=O)n2-c1ccc(Cl)cc1 | 132
O=C(CSc1nccc2ccccc12)NC1CCCOC1 (configuration not stated) | 116
Cc1ccc(-c2csc(-c3cccn3CC(=O)N3CCN(c4cccc(C)c4)C(C)C3)n2)cc1 (configuration not stated) | 109
COCc1c(Br)c(C)nc(OCC(=O)N/N=C/c2ccccc2O)c1C#N | 106
COc1ccccc1NC(=O)CSc1ncnc2c1oc1ccccc12 | 134
O=c1ccn(-c2nc(-c3ccccc3)sc2-c2ccccc2)c(=O)[nH]1 | 109
COc1ccc(-c2noc(N3CCC(C(=O)N(C)c4ccc(F)cc4)CC3)n2)cc1 | 121
O=C(CSc1nc(-c2ccc(F)cc2)nc2c1Cc1ccccc1O2)Nc1ccc(C(=O)O)cc1 | 120

Four records picked at random from the list so far:
Structure (SMILES) | host macrophage viability [%]
Cc1ccc(-c2csc(-c3cccn3CC(=O)N3CCN(c4cccc(C)c4)C(C)C3)n2)cc1 (configuration not stated) | 109
O=C(Nc1ccccc1Cl)C1CCN(C(=O)Nc2ccccc2)CC1 | 109
Cc1nc(C)c(C(=O)N2CCN(S(=O)(=O)c3c(C)nn(Cc4ccccc4)c3C)CC2)s1 | 117
O=C(CSc1nc(-c2ccc(F)cc2)nc2c1Cc1ccccc1O2)Nc1ccc(C(=O)O)cc1 | 120

(listing goes on)

Structure (SMILES) | host macrophage viability [%]
COc1ccc(-c2nn(-c3ccccc3)cc2CNC(=O)/C=C/C(=O)O)cc1 | 106
Cc1ccc(NC(=O)CSc2nnc(-c3cccnc3)n2N)cc1Cl | 131
O=C(NNc1nc2ccc(F)cc2s1)c1ccc(S(=O)(=O)N2CCc3ccccc3C2)cc1 | 140 ± 2.4
COc1ccc(NC(=O)CSc2nnc3[nH]c(=O)ccn23)c(OC)c1 | 120
Cc1ccc(-c2nnc3ccccc3c2C(=O)Nc2ccccc2Cl)cc1 | 117
COc1ccccc1NC(=O)Nc1nc(-c2cccnc2)nc2ccccc12 | 104
Cc1nc(-n2nc(C)c(Cc3ccccc3)c2O)sc1C(=O)NC(C)C | 105
COC(=O)c1c(-c2cccc(F)c2)noc1NCc1ccc(F)cc1 | 105
COc1cccc(-n2nnc3c(N4CCN(C(=O)COc5ccc(Cl)cc5)CC4)ncnc32)c1 | 104
Cc1n[nH]c2c1C(c1ccc(-c3cccc([N+](=O)[O-])c3)o1)C(C#N)=C(N)O2 (configuration not stated) | 88.4
CC(C)c1ccc(C2C(C#N)=C(SCC(N)=O)NC3=C2C(=O)CCC3)cc1 (configuration not stated) | 102
Cc1ccc(OCC(=O)N/N=C2/C(=O)Nc3c(Br)cc(Br)cc32)cc1 | 106
COc1ccc(C(=O)Nc2nc3ccc(S(=O)(=O)N4CCCC4)cc3s2)c(OC)c1 | 117
Cn1c(=O)c2c(nc(CN3CCOCC3)n2CC(=O)C(C)(C)C)n(C)c1=O | 113
COc1ccc(C(NC(=O)c2cc(-c3ccccn3)n[nH]2)c2ccncc2)cc1 (configuration not stated) | 111
CC(C(=O)c1ccc(Cl)cc1)C1(O)C(=O)Nc2ccccc21 (configuration not stated) | 108
O=C(CSc1ncnc2ccccc12)NC1CCCCC1 | 112 ± 6.8
Cc1cc(SCC(=O)NC2CCCCC2)nc(=O)[nH]1 | 116
O=C(Cn1nc(-c2ccoc2)oc1=O)NC1CCCCC1 | 122
COC(=O)N1CCc2c(sc(NC(=O)c3cccc(N4C(=O)CCC4=O)c3)c2C(N)=O)C1 | 120
COc1ccc(/C=C/C(=O)Nc2ccc(S(=O)(=O)N3CCc4ccccc43)cc2)cc1 | 122
Nc1ccc(-c2ccc(N)c([N+](=O)[O-])c2)cc1[N+](=O)[O-] | 98.5 ± 2.3
COc1ccc(-n2nnc3c(N4CCN(C(=O)C(=O)c5c[nH]c6ccccc56)CC4)ncnc32)cc1 | 130
CNc1nnc(CSc2nc(C)cc(C)n2)s1 | 129
O=C(CCn1c(=O)oc2ccccc21)NCCC1=CCCCC1 | 98 ± 4.8
COc1ccccc1C(=O)Nc1ncc(S(=O)(=O)c2ccc([N+](=O)[O-])cc2)s1 | 94.2
